Test results as given in the supplement of paper PMC10849652.
This is one part of the list.

Protein sequences, listed by entry. Tags and fused reporters are not part of them. Lines headed by an entry give the natural chain unless they say otherwise; changes in a name come on top.
UniProt Q8IY37: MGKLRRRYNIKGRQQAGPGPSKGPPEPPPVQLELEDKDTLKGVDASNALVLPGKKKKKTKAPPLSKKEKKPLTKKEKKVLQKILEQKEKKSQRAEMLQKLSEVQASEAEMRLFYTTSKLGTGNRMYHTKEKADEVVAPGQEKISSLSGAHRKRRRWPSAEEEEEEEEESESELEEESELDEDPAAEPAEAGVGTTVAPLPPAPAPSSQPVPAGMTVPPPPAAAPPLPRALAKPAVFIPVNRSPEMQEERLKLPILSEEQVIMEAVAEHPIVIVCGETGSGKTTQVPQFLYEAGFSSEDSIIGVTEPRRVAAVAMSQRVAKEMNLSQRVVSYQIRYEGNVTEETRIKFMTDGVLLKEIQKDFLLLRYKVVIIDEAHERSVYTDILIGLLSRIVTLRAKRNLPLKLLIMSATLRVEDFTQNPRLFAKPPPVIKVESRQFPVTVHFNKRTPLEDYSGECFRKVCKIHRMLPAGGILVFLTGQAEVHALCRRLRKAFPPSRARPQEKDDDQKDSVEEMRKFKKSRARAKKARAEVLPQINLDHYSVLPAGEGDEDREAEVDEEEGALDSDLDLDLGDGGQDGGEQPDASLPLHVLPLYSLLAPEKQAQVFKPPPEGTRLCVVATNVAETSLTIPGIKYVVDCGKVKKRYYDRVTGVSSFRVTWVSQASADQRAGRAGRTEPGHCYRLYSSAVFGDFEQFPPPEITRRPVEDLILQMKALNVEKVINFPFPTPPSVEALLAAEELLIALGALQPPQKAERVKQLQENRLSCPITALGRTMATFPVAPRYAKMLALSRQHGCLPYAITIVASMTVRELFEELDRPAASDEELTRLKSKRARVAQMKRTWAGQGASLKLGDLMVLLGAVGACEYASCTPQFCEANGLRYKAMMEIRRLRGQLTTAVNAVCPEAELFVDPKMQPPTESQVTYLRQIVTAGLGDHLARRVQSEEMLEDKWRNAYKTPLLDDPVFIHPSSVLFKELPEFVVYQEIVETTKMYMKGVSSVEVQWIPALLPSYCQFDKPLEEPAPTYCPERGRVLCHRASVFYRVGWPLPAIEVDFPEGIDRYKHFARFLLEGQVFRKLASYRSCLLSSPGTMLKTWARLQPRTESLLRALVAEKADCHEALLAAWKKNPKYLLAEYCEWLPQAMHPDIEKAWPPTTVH
UniProt Q9UHL0: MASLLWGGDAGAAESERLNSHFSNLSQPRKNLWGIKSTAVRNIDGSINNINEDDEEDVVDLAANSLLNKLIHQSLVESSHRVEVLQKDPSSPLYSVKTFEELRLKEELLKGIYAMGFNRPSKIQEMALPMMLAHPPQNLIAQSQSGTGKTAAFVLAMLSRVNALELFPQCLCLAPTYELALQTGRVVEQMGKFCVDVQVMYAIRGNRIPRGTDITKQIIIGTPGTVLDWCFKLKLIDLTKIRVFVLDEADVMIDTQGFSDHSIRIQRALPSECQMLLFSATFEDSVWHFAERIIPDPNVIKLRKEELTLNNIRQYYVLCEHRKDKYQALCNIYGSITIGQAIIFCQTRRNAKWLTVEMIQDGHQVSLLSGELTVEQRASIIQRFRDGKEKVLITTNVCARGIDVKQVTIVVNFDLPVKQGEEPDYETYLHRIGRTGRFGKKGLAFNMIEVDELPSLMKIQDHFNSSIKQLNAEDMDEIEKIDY
UniProt P80370: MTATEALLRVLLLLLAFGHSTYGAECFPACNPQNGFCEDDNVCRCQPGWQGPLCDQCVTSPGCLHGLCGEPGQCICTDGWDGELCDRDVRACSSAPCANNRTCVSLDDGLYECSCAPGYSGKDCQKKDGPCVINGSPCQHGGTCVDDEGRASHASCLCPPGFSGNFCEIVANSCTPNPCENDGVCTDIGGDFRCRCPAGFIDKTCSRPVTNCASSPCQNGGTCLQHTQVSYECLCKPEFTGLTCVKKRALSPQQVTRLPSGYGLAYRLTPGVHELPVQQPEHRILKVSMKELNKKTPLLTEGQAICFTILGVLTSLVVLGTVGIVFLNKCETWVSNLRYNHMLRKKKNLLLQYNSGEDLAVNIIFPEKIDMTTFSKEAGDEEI
UniProt Q9H5Z1: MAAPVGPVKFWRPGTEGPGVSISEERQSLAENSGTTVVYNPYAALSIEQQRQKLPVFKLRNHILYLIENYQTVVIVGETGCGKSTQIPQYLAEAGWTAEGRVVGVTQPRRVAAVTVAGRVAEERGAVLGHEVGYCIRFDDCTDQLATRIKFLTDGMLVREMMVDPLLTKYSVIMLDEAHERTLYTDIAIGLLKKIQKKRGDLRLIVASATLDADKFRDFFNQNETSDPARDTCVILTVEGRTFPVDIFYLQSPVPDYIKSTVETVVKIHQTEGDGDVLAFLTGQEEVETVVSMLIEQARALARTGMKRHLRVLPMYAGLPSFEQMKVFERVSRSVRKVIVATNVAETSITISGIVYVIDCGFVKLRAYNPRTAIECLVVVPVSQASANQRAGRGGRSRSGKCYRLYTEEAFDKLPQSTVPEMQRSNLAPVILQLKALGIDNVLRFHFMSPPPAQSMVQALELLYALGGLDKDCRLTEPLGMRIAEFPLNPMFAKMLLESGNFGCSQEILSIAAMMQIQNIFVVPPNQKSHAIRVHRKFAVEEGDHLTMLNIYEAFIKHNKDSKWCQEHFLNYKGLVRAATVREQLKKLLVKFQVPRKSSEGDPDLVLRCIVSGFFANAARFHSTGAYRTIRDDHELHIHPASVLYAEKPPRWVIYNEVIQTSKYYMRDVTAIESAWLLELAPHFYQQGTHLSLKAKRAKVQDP
UniProt Q96HY7: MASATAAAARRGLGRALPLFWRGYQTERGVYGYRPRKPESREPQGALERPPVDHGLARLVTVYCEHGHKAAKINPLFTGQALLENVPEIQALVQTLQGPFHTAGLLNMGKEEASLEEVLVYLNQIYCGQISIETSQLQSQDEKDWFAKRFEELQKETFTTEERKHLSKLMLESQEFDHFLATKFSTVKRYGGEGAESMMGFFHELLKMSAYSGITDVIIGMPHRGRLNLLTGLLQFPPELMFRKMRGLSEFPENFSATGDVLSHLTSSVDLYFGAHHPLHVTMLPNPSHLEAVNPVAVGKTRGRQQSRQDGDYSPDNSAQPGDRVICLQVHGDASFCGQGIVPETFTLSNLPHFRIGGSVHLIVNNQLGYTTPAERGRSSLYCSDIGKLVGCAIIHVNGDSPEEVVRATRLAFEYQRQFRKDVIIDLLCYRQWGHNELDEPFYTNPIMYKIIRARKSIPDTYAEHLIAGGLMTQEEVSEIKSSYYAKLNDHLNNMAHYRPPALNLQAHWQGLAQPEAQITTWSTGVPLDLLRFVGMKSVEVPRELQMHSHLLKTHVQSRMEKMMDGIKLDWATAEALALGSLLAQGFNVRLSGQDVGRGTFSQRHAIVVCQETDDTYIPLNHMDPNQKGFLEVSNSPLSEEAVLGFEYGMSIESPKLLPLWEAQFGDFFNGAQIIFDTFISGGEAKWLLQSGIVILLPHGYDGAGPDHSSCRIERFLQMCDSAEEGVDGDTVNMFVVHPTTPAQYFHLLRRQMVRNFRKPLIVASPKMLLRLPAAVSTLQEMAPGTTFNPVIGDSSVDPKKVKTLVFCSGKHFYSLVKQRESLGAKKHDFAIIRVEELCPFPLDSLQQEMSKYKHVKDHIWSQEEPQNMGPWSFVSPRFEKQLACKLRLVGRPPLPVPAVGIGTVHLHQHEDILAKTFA
UniProt Q8TEH3: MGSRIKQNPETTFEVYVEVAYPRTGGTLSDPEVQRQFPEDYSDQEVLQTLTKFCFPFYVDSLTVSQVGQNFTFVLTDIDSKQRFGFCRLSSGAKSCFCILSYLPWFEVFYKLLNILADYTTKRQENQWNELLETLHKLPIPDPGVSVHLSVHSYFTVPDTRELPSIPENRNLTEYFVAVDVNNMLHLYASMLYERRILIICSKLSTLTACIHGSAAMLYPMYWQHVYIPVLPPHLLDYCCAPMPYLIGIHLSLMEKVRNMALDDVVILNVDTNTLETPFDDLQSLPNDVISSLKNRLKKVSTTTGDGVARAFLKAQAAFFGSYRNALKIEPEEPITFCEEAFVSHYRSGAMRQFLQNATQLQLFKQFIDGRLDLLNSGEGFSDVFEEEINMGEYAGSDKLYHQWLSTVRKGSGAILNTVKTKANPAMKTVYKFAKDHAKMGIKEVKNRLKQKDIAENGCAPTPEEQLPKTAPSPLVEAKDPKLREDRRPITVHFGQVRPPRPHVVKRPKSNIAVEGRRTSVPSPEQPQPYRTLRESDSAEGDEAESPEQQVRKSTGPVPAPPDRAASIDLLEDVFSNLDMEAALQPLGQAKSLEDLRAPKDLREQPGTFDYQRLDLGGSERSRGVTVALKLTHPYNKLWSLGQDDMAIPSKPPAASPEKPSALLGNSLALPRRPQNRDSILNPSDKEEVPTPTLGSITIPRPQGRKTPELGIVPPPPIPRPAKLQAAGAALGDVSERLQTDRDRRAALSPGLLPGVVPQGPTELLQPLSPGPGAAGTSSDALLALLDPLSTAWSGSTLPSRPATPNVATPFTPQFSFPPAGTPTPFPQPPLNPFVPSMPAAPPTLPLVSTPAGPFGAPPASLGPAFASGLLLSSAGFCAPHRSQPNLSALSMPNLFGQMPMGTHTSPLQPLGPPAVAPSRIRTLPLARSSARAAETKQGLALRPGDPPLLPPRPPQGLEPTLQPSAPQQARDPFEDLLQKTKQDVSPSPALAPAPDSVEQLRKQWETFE
UniProt Q9NUL7: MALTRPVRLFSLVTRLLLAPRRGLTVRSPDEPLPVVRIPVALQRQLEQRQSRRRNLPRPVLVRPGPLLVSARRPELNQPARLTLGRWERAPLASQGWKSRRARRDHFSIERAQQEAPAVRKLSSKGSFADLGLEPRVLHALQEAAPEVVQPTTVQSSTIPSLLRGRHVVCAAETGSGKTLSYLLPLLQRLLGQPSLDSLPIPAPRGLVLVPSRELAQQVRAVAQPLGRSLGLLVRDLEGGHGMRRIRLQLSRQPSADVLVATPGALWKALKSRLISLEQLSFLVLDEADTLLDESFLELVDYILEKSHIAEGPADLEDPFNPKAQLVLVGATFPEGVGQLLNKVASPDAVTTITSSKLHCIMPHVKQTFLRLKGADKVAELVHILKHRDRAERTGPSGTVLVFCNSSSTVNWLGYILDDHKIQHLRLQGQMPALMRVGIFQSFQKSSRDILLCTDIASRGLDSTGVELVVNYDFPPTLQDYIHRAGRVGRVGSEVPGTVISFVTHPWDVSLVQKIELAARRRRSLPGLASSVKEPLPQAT
UniProt Q08495: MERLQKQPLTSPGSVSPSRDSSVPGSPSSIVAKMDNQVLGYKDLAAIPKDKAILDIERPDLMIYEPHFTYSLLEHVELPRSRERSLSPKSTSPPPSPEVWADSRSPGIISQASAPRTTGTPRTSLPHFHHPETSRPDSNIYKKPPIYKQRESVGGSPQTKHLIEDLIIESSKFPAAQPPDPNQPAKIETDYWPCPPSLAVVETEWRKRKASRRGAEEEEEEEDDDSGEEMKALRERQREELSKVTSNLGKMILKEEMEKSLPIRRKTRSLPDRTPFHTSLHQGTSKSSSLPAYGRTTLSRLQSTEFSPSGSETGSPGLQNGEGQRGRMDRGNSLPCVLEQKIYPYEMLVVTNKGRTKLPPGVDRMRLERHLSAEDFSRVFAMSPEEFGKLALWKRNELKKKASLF
UniProt O15121: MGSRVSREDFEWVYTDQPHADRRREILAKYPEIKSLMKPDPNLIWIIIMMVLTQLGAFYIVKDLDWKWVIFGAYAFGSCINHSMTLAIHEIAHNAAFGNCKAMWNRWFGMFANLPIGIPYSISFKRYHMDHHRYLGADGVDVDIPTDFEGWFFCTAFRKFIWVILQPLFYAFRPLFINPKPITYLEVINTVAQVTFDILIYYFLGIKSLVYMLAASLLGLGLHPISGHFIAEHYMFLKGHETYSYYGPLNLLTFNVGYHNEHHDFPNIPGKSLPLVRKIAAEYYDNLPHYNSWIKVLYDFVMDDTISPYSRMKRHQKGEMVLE
UniProt O00273: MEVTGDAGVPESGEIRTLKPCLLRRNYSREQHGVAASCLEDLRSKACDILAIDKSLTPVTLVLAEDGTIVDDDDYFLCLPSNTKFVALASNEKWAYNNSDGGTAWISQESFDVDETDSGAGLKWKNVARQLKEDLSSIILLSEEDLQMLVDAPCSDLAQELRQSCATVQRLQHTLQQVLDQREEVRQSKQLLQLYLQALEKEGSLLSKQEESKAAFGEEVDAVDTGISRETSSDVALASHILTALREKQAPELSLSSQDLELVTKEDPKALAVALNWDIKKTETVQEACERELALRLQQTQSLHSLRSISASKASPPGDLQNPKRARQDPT
UniProt Q6ICB0: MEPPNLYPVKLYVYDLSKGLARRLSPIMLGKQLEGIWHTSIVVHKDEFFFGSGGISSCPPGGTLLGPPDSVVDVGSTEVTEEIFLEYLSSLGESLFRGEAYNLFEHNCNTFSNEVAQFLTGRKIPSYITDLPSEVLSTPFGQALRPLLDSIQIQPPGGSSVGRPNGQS

Experiments:
Assay in all cases: log2 fold change, soluble protein after heating vs DMSO (PISA); higher = thermal stabilisation; K562 cells, 10 uM, 30 min; active = over 0.2 and 3.5 SD of the protein, either way, in both replicates (recomputed)
[1] = compound: C[C@@H]1COCCN1C2=NC(=NC(=C2)C3(CC3)S(=O)(=O)C)C4=C5C=CNC5=CC=C4
In short: (§1)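 K562 cells at 2×10^6 cells/mL were treated for 30 min with 10 μM compound, and aliquots were heated for 3 min over 48°C-58°C before pooling. Extraction used PBS with 0.5% NP-40 at 4°C, and soluble protein was the supernatant after 21,000xg for 90 min, measured by TMTpro 16plex LC-MS/MS with channel sums equalised. Thermal stability values, relative to control samples and from duplicates, are log2 fold changes.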

[2] = compound: C[C@@H](Oc1cc(-c2cnn(C3CCNCC3)c2)cnc1N)c1c(Cl)ccc(F)c1Cl [crizotinib]
In short: as §1

[3] = compound: C[C@H](C1=CC=C(C=C1)C(=O)NC2=C3C=CNC3=NC=C2)N
In short: as §1

[4] = compound: C[C@H](Nc1ncnc2nc[nH]c12)c1cc2cccc(Cl)c2c(=O)n1-c1ccccc1 [duvelisib]
In short: as §1

[5] = compound: Cc1cc(Nc2cc(N3CCN(C)CC3)nc(Sc3ccc(NC(=O)C4CC4)cc3)n2)n[nH]1 [tozasertib]
In short: as §1

[6] = compound: Cc1cc(SCc2sc(-c3ccc(C(F)(F)F)cc3)nc2C)ccc1OCC(=O)O
In short: as §1

[7] = compound: Cc1ccc(-n2nc(C(C)(C)C)cc2NC(=O)Nc2ccc(OCCN3CCOCC3)c3ccccc23)cc1 [doramapimod]
In short: as §1

[8] = compound: Cc1ccc(NC(=O)c2ccc(CN3CC[C@H](N(C)C)C3)c(C(F)(F)F)c2)cc1Nc1nccc(-c2cncnc2)n1 [bafetinib]
In short: as §1

[9] = compound: Cc1cn(-c2cc(NC(=O)c3ccc(C)c(Nc4nccc(-c5cccnc5)n4)c3)cc(C(F)(F)F)c2)cn1 [nilotinib]
In short: as §1

[10] = compound: Cc1nc(Nc2n[nH]c3c2CN(C(=O)N[C@H](CN(C)C)c2ccccc2)C3(C)C)c2sccc2n1
In short: as §1

[11] = compound: Cc1nc(Nc2ncc(C(=O)Nc3c(C)cccc3Cl)s2)cc(N2CCN(CCO)CC2)n1 [dasatinib]
In short: as §1

[12] = compound: Cc1ncc(-c2ccnc(Nc3ccc(S(C)(=O)=O)cc3)n2)n1C(C)C
In short: as §1

[13] = compound: Cn1cc(-c2ccc3c(c2)CCN3C(=O)Cc2cccc(C(F)(F)F)c2)c2c(N)ncnc21
In short: as §1

[14] = compound: Cn1cncc1[C@@](N)(c1ccc(Cl)cc1)c1ccc2c(c1)c(-c1cccc(Cl)c1)cc(=O)n2C [tipifarnib]
In short: as §1

[15] = compound: FC(F)(F)c1ccc(/C=C/c2nc(COc3ccc(CCCCn4ccnn4)cc3)co2)cc1 [mubritinib]
In short: as §1

[16] = compound: CS(=O)(=O)c1ccc(-c2cnc(N)c(C(=O)Nc3ccccc3)n2)cc1
In short: as §1

[17] = compound: Cc1ccc(C(=O)N(CCCN)[C@@H](c2nc3cc(Cl)ccc3c(=O)n2Cc2ccccc2)C(C)C)cc1 [ispinesib]
In short: as §1

[18] = compound: Cn1cc(-c2ccc3nnc(C(F)(F)c4ccc5ncccc5c4)n3n2)cn1
In short: as §1

[19] = compound: Cc1cc(Nc2cc(CN3CCOCC3)c3nc(C)c(Cc4ccc(Cl)cc4F)n3n2)n[nH]1 [gandotinib]
In short: as §1

[20] = compound: Cc1cccc(CC(=O)N2CCc3c2ccc(-c2cn(C)c4ncnc(N)c24)c3F)n1
In short: as §1

Measured: log2 fold change

DHX37 (UniProt Q8IY37)
inactive: [1] -0.037

DDX25 (UniProt Q9UHL0)
inactive: [2] 0.011 | [3] -0.183 | [4] -0.092 | [5] 0.063 | [6] 0.008 | [7] -0.061 | [8] -0.071 | [9] -0.019 | [10] -0.143 | [11] -0.128 | [12] 0.036 | [13] 0.185 | [14] -0.103 | [15] 0.023

DLK1 (UniProt P80370)
inactive: [2] -0.108 | [1] -0.151 | [3] -0.133 | [6] -0.058 | [7] 0.002 | [11] -0.012 | [13] -0.279

DENND10 (UniProt Q8TCE6)
active: [1] 0.298
inactive: [16] 0.046 | [3] -0.015 | [6] 0.03 | [17] -0.021 | [8] 0.033 | [9] -0.266 | [10] -0.032 | [11] -0.129 | [12] -0.353 | [13] -0.131 | [18] -0.064 | [14] 0.034 | [15] 0.077

DHX35 (UniProt Q9H5Z1)
inactive: [1] -0.069 | [9] -0.088 | [10] 0.005 | [12] -0.115

DHTKD1 (UniProt Q96HY7)
inactive: [2] 0.241 | [1] 0.137 | [5] -0.065 | [7] -0.047 | [8] 0.108

DECR1 (UniProt E5RJD2)
inactive: [4] 0.379 | [19] 0.092 | [6] -0.032 | [8] -0.046 | [20] -0.12 | [9] -0.352 | [10] 0.001 | [11] -0.203 | [12] 0.082 | [14] 0.105 | [15] -0.008

DMBT1 isoform 6 (UniProt Q9UGM3)
inactive: [16] -0.038 | [1] 0.221 | [8] -0.126 | [9] -0.004 | [10] -0.114 | [12] 0.648 | [15] 0.064

DENND1A isoform 6 (UniProt Q8TEH3)
inactive: [2] -0.231 | [7] 0.374 | [8] -0.086 | [14] -0.113

DET1 isoform 2 (UniProt Q7L5Y6)
inactive: [2] 0.069 | [3] 0.028 | [7] 0.036 | [17] 0.304 | [13] -0.075 | [18] 0.046 | [14] -0.127 | [15] 0.121

DDX28 (UniProt Q9NUL7)
inactive: [3] 0.232 | [13] -0.105

DDR1 isoform 5 (UniProt Q08345)
inactive: [2] -0.266 | [1] 0.067 | [3] -0.018 | [19] -0.577 | [17] -0.109 | [20] 0.305 | [13] 0.185 | [18] -0.002

DMTN isoform 2 (UniProt Q08495)
inactive: [2] -0.063 | [5] -0.273 | [7] 0.024 | [17] 0 | [8] -0.096 | [9] -0.028 | [10] -0.131 | [12] 0.092 | [18] -0.143

DEGS1 (UniProt O15121)
inactive: [16] 0.064 | [1] 0.062 | [3] -0.047 | [19] 0.138 | [6] -0.078 | [8] -0.032 | [20] -0.029 | [9] 0.04 | [10] -0.021 | [11] -0.1 | [12] -0.031 | [13] -0.07 | [14] -0.026 | [15] 0.087

DFFA isoform 2 (UniProt O00273)
inactive: [2] -0.019 | [1] 0.219 | [4] -0.195 | [6] -0.003 | [7] 0.019 | [8] -0.058 | [9] 0.045 | [10] -0.088 | [11] 0 | [12] -0.006 | [15] -0.032

Two records drawn at random from those above:
DLK1 (UniProt P80370)
inactive: [2] -0.108 | [1] -0.151 | [3] -0.133 | [6] -0.058 | [7] 0.002 | [11] -0.012 | [13] -0.279

DDX25 (UniProt Q9UHL0)
inactive: [2] 0.011 | [3] -0.183 | [4] -0.092 | [5] 0.063 | [6] 0.008 | [7] -0.061 | [8] -0.071 | [9] -0.019 | [10] -0.143 | [11] -0.128 | [12] 0.036 | [13] 0.185 | [14] -0.103 | [15] 0.023

(further entries)

DLC1 (UniProt Q96QB1)
inactive: [2] 0.046 | [1] 0.167 | [19] -0.073 | [7] -0.322 | [20] -0.231 | [9] 0.094 | [10] 0.148 | [12] -0.112 | [15] 0.043

DESI1 (UniProt Q6ICB0)
inactive: [3] 0.006 | [4] 0.096 | [5] 0.044 | [6] 0.166 | [8] 0.003 | [11] -0.131 | [13] -0.049 | [14] -0.114

DDX39B (UniProt H0Y400)
inactive: [1] -0.136
